Results on two sequences are retold here after paper doi:10.1101/2020.01.02.893370 (bioRxiv, 2020).

For at least one entry, the source does not settle the construct or the ends of the probe. For some of these results: Weaker means in comparison with the reference protein, sequence or condition of that experiment. At least one verdict was read from the data and is not stated in words by the source.

Experiment in all cases: EMSA
(In EMSA bound probe runs differently from free probe, usually more slowly.)

Data set [1] has as its system sigma70 (RpoD) + RNAP core 4CS C70S,C72S,C85S,C88S. To be noted: Mg2+, not significantly changed vs WT.
Data set [2] concerns sigma70 (RpoD) + RNAP core K74A-K87A. To be noted: Mg2+, not significantly changed vs WT.
Data set [3] relates to sigma70 (RpoD) + RNAP core K74A. To be noted: Mg2+, not significantly changed vs WT.
Data set [4] deals with sigma70 (RpoD) + RNAP core K87A. To be noted: Mg2+, not significantly changed vs WT.
Data set [5] has as its system sigma28 (FliA) + RNAP core K74A-K87A. To be noted: Mg2+, lower RPo, higher RPc ratio.
The test system of data set [6] is sigma28 (FliA) + RNAP core K74A. To be noted: Mg2+, lower RPo, higher RPc ratio.
For data set [7], the system named is sigma28 (FliA) + RNAP core K87A. To be noted: Mg2+, lower RPo, higher RPc ratio.

Regarding “CCCGCCGACAGGTTTCCCGACTGGAAAGCGGGCAGTGAGCGCAACGCAATTAATGTGAGTTAGCTCACTCATTAGGCACCCCAGGCTTTACACTTTATGCTTCCGGCTCGTATAATGTGTGGAATTGTGAGCGGATAACAATTTCACACAGGAAACAGCTATGACCATGGGCGCGG (double strand) [lacUV5p]”, the binding result in data set [1], in data set [2], in data set [3] and in data set [4] was “binds” in each case.

Turning to “CCCGCCGTTTTTAATAGCGGGAATAAGGGGCAGAGAAAAGAGTATTTCGGCGACTAACAAAAAATGGCTGTTTTTGAAAAAAATTCTAAAGGTTGTTTTACGACAGACGATAACAGGGTTGACGGCGATTGAGCCGACGGGTGGAAACCCAATACGTAATCAACGACTGGGCGCGG (double strand) [fliCp]”, the binding result in data set [5], in data set [6] and in data set [7] was “binds more weakly” each time.
